Data reported in US20260224721A1 (Ambrx, Inc., priority 2023, published 2026).

Assay: general procedure: solution-phase peptide synthesis; HATU / N-methylmorpholine

## methyl ((2R,3R)-3-((S)-1-((3R,4S,5S)-4-((S)-2-((S)-2-((tert-butoxycarbonyl)(methyl)amino)-3-methylbutanamido)-N,3-dimethylbutanamido)-3-methoxy-5-methylheptanoyl)pyrrolidin-2-yl)-3-methoxy-2-methylpropanoyl)-L-phenylalaninate
Coupling step
  step yield: 79%

## ((2R,3R)-3-((S)-1-((3R,4S,5S)-4-((S)-2-((S)-2-((tert-butoxycarbonyl)(methyl)amino)-3-methylbutanamido)-N,3-dimethylbutanamido)-3-methoxy-5-methylheptanoyl)pyrrolidin-2-yl)-3-methoxy-2-methylpropanoyl)-L-phenylalanine
Late stage modification step
  step yield: 90%

## methyl ((2R,3R)-3-((S)-1-((3R,4S,5S)-4-((S)-2-((tert-butoxycarbonyl)amino)-N,3-dimethylbutanamido)-3-methoxy-5-methylheptanoyl)pyrrolidin-2-yl)-3-methoxy-2-methylpropanoyl)-L-phenylalaninate
Coupling step
  step yield: 76%
